Assay [1] has as its target EMC1-Flag (Flag-tagged Drosophila EMC1, from UAS-EMC1-FLAG) (Drosophila melanogaster). Briefly: co-IP.
The target is the same in assay [2]. Description: co-IP. This is another data set of the same source.

Where two headings read alike, the source gives them in different places. These are yes or no findings as the source states them, for the method shown. In cells and extracts the contact can be indirect. Binding can be weak; no strength is given. Tags and fused reporters may be left off the sequences shown.

B1: Hpo-GFP (GFP-tagged Drosophila Hippo, from UAS-Hpo-GFP) (enzyme, UniProt Q8T0S6 1-669)
chain: MSEPEVTSVVDMKSPNISSSCSFFKLKKLSEESLLQPPEKVFDIMYKLGEGSYGSVYKAVHKESSSIVAIKLVPVESDLHEIIKEISIMQQCDSPYVVRYYGSYFKQYDLWICMEYCGAGSVSDIMRLRKKTLTEDEIATILSDTLQGLVYLHLRRKIHRDIKAANILLNTEGYAKLADFGVAGQLTDTMAKRNTVIGTPFWMAPEVIEEIGYDCVADIWSLGITALEMAEGKPPYGEIHPMRAIFMIPQKPPPSFREPDRWSTEFIDFVSKCLVKEPDDRATATELLEHEFIRNAKHRSILKPMLEETCAIREQQRANRSFGGVLAASQAKSLATQENGMQQHITDNAFMEDPGTLVPEKFGEYQQSSASDATMIAHAEQGVDEGTLGPGGLRNLSKAAAPAAASSAASPLDMPAVDSGTMVELESNLGTMVINSDSDDSTTAKNNDDQKPRNRYRPQFLEHFDRKNAGDGRGDEKPIATEYSPAAAEQQQQQQQQQQQQQQDEQHLASGANDLNNWEHNMEMQFQQISAINQYGLQQHQQQQQVLMAYPLMNEQLIALNNQPNLLLSNAAPMGQQGIPAAAPAQPPPAYQNQHMHTQSHAYVEGEFEFLKFLTFDDLNQRLCNIDHEMELEIEQLNKKYNAKRQPIVDAMNAKRKRQQNINNNLIKI
Take B1: the binding entry in assay [1] and in assay [2] was “binds” each time.

These data come from publication doi:10.1101/2022.01.25.477727.
